Binding data for 1 molecule are collected here from patent US20130115626A1 (Genentech, published 2013).

No constants are given. Whether binding was seen depends on the method and setting. Some binding calls cover weakened binding; strength is not graded here.

The experiment addresses T1, human soluble NRP1 antigen (human) (UniProt O14786).
T1 sequence (looked up): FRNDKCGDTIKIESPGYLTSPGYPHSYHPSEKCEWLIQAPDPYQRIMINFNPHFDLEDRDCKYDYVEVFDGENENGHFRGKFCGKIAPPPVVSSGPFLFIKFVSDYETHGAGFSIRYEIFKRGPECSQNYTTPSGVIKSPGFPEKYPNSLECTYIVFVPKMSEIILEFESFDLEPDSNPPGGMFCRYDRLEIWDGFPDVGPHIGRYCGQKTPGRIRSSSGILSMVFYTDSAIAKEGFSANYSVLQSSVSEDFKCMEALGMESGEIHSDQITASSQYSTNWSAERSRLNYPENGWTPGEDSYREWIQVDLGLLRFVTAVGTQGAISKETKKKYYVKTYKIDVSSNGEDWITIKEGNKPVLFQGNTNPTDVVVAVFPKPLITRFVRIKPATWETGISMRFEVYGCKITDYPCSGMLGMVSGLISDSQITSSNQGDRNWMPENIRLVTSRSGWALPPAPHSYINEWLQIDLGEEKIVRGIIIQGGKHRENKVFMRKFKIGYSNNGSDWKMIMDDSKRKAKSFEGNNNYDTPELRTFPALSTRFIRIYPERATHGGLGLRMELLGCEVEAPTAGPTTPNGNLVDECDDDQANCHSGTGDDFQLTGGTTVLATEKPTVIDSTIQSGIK
The experiment is described as follows: ELISA screen of hybridoma supernatants and subclones on soluble NRP1 antigen.

B1: monoclonal anti-NRP1 antibody 7130 (antibody, V domains shown)
VH: QLVEESGGGLVTPGGTLTLTCTASGFTISNYHMSWVRQAPGKGLEWIGIIYAVSAATWSATWVKGRFTISKTLTTVDLKMTSLTAADTATYFCARVRAPGDSTYYDLWGPGTLVTVSS
VL: AVVMTQTASPVSAVVGGTVTINCQASQTISNNWLSWYQQKPGQPPKLLIYKASILASGVPSRFSGSGSGTEFTLTISGVQCDDAATYYCLYGHYITTSAHNAFGGGTEVVVKG
notes: Rabbit monoclonal antibody from a hybridoma (rabbit immunised with human soluble NRP1)
Regarding B1, the binding entry is “binds”.
